Test results as given in patent publication US8410153B2, “Naphthalene isoxazoline invertebrate pest control agents” (E.I. du Pont de Nemours and Company, priority 2007, dated 2013).
Some of these results come from one statement about several compounds together. At least one structure is not confirmed: it was looked up by name or label, or the drawing left a doubt.

Assays:
Format in all cases: in vivo
[1] = tested on: green peach aphid (Myzus persicae); test: Test F: control of green peach aphid on radish plant, contact and/or systemic; conditions: sprayed at 250 ppm; held 6 days
[2] = tested on: cat flea (Ctenocephalides felis); test: Test I: control of cat flea on orally dosed mouse, fleas applied two hours after dosing; conditions: CD-1 mouse, oral 10 mg/kg, evaluated 48 hours after flea application
[3] = tested on: potato leafhopper (Empoasca fabae); test: Test C: control of potato leafhopper on Soleil bean plant, contact and/or systemic; conditions: held 6 days
[4] = tested on: cat flea (Ctenocephalides felis); test: Test J: control of cat flea on orally dosed mouse, fleas applied twenty-four hours after dosing; conditions: CD-1 mouse, oral 10 mg/kg, evaluated 48 hours after flea application

| Compound | mortality [1] | flea mortality [2] | control efficacy: mortality ([3]; sprayed at 50 ppm) | control efficacy: mortality ([3]; sprayed at 250 ppm) | flea mortality [4] |
| --- | --- | --- | --- | --- | --- |
| CC(C)CNC(=O)C(C)NC(=O)c1ccc(C2=NOC(c3cc(Cl)cc(C(F)(F)F)c3)(C(F)(F)F)C2)c2ccccc12 (mixture of isomers) [Compound 111] | at least 80% | at least 50% | ≥ 80% | ≥ 80% | at least 50% |
| CS(=O)(=O)CCNC(=O)c1ccc(C2=NOC(c3cc(F)cc(C(F)(F)F)c3)(C(F)(F)F)C2)c2ccccc12 (racemic) [Compound 134] | – | – | ≥ 80% | ≥ 80% | – |
| CSCC(C)NC(=O)c1ccc(C2=NOC(c3cc(Cl)cc(Cl)c3)(C(F)(F)F)C2)c2ccccc12 (mixture of isomers) [Compound 29] | – | at least 50% | ≥ 80% | ≥ 80% | at least 50% |
| O=C(NCCCO)c1ccc(C2=NOC(c3cccc(C(F)(F)F)c3)(C(F)(F)F)C2)c2ccccc12 (racemic) [Compound 42] | – | at least 50% | – | – | – |
| CC(C)CNC(=O)CNC(=O)c1ccc(C2=NOC(c3cc(Cl)cc(C(F)(F)F)c3)(C(F)(F)F)C2)c2ccccc12 (stereo not shown) [Compound 118] | at least 80% | at least 50% | ≥ 80% | ≥ 80% | – |
| CC(NC(=O)c1ccc(C2=NOC(c3cc(Cl)cc(C(F)(F)F)c3)(C(F)(F)F)C2)c2ccccc12)C(=O)NC(C)C(F)(F)F (stereo not shown) [Compound 115] | – | at least 50% | ≥ 80% | – | – |
| CC(C)SCCCNC(=O)c1ccc(C2=NOC(c3cccc(C(F)(F)F)c3)(C(F)(F)F)C2)c2ccccc12 (racemic) [Compound 56] | – | – | – | ≥ 80% | – |
| CNC(=O)C(C)NC(=O)c1ccc(C2=NOC(c3cc(Cl)cc(C(F)(F)F)c3)(C(F)(F)F)C2)c2ccccc12 (mixture of isomers) [Compound 125] | – | at least 50% | – | – | at least 50% |
| O=C(CNC(=O)c1ccc(C2=NOC(c3cccc(OC(F)(F)F)c3)(C(F)(F)F)C2)c2ccccc12)NCC(F)(F)F (stereo not shown) [Compound 72] | – | at least 50% | ≥ 80% | ≥ 80% | – |
| CCCNC(=O)C(C)NC(=O)c1ccc(C2=NOC(c3cc(C(F)(F)F)cc(C(F)(F)F)c3)(C(F)(F)F)C2)c2ccccc12 (stereo not shown) [Compound 89] | at least 80% | – | – | – | – |
| CCSCCNC(=O)c1ccc(C2=NOC(c3cccc(C(F)(F)F)c3)(C(F)(F)F)C2)c2ccccc12 (racemic) [Compound 51] | – | – | ≥ 80% | ≥ 80% | – |
| CC(O)CNC(=O)c1ccc(C2=NOC(c3cccc(C(F)(F)F)c3)(C(F)(F)F)C2)c2ccccc12 (mixture of isomers) [Compound 36] | – | at least 50% | – | – | – |
| CC(NC(=O)CNC(=O)c1ccc(C2=NOC(c3cc(C(F)(F)F)cc(C(F)(F)F)c3)(C(F)(F)F)C2)c2ccccc12)C(F)(F)F (stereo not shown) [Compound 91] | at least 80% | at least 50% | ≥ 80% | ≥ 80% | at least 50% |
| CC(O)(CNC(=O)c1ccc(C2=NOC(c3cccc(C(F)(F)F)c3)(C(F)(F)F)C2)c2ccccc12)C(F)(F)F (mixture of isomers) [Compound 45] | – | – | ≥ 80% | ≥ 80% | – |
| CC(O)CCNC(=O)c1ccc(C2=NOC(c3cccc(C(F)(F)F)c3)(C(F)(F)F)C2)c2ccccc12 (mixture of isomers) [Compound 44] | – | at least 50% | – | – | – |
| CC(NC(=O)CNC(=O)c1ccc(C2=NOC(c3cc(Cl)cc(C(F)(F)F)c3)(C(F)(F)F)C2)c2ccccc12)C(F)(F)F (stereo not shown) [Compound 113] | at least 80% | at least 50% | ≥ 80% | – | at least 50% |
| CSCC(C)NC(=O)c1ccc(C2=NOC(c3cc(C(F)(F)F)cc(C(F)(F)F)c3)(C(F)(F)F)C2)c2ccccc12 (mixture of isomers) [Compound 59] | – | at least 50% | ≥ 80% | ≥ 80% | – |
| CS(=O)(=O)CCNC(=O)c1ccc(C2=NOC(c3cc(Br)cc(C(F)(F)F)c3)(C(F)(F)F)C2)c2ccccc12 (racemic) [Compound 54] | at least 80% | at least 50% | ≥ 80% | ≥ 80% | at least 50% |
| O=C(NCO)c1ccc(C2=NOC(c3cc(Cl)cc(Cl)c3)(C(F)(F)F)C2)c2ccccc12 (stereo not shown) [Compound 82] | – | – | – | ≥ 80% | – |
| CC(NC(=O)c1ccc(C2=NOC(c3cc(C(F)(F)F)cc(C(F)(F)F)c3)(C(F)(F)F)C2)c2ccccc12)C(=O)NCC(C)(C)C (mixture of isomers) [Compound 97] | – | – | ≥ 80% | ≥ 80% | – |

| Compound | mortality [1] | flea mortality [2] | control efficacy: mortality ([3]; sprayed at 50 ppm) | control efficacy: mortality ([3]; sprayed at 250 ppm) | flea mortality [4] |
| --- | --- | --- | --- | --- | --- |
| CC(C)NC(=O)C(C)NC(=O)c1ccc(C2=NOC(c3cc(C(F)(F)F)cc(C(F)(F)F)c3)(C(F)(F)F)C2)c2ccccc12 (mixture of isomers) [Compound 83] | at least 80% | at least 50% | ≥ 80% | ≥ 80% | at least 50% |
| CC(NC(=O)c1ccc(C2=NOC(c3cc(Cl)cc(C(F)(F)F)c3)(C(F)(F)F)C2)c2ccccc12)C(=O)NCC(C)(C)C (mixture of isomers) [Compound 112] | – | – | ≥ 80% | – | at least 50% |
| CC(C)(C)SCCNC(=O)c1ccc(C2=NOC(c3cccc(C(F)(F)F)c3)(C(F)(F)F)C2)c2ccccc12 (racemic) [Compound 57] | – | – | ≥ 80% | ≥ 80% | – |
| CC(NC(=O)c1ccc(C2=NOC(c3cc(Cl)cc(C(F)(F)F)c3)(C(F)(F)F)C2)c2ccccc12)C(=O)NCC(C)(C)C (mixture of isomers) [Compound 131] | – | – | – | ≥ 80% | – |
| CC(C)CNC(=O)CNC(=O)c1ccc(C2=NOC(c3cc(C(F)(F)F)cc(C(F)(F)F)c3)(C(F)(F)F)C2)c2ccccc12 (stereo not shown) [Compound 102] | at least 80% | at least 50% | ≥ 80% | ≥ 80% | at least 50% |
| CC(NC(=O)c1ccc(C2=NOC(c3cc(Cl)cc(Cl)c3)(C(F)(F)F)C2)c2ccccc12)C(=O)NC(C)C(F)(F)F (mixture of isomers) [Compound 123] | – | – | ≥ 80% | ≥ 80% | – |
| CC(C)NC(=O)CNC(=O)c1ccc(C2=NOC(c3cc(F)cc(F)c3)(C(F)(F)F)C2)c2ccccc12 (stereo not shown) [Compound 75] | – | at least 50% | – | – | – |
| CSCCC(C)NC(=O)c1ccc(C2=NOC(c3cc(Cl)cc(Cl)c3)(C(F)(F)F)C2)c2ccccc12 (stereo not shown) [Compound 26] | – | at least 50% | ≥ 80% | ≥ 80% | – |
| CC(C)(C)NC(=O)CNC(=O)c1ccc(C2=NOC(c3cc(Cl)cc(Cl)c3)(C(F)(F)F)C2)c2ccccc12 (stereo not shown) [Compound 24] | – | at least 50% | – | ≥ 80% | – |
| CC(C)(C)CNC(=O)CNC(=O)c1ccc(C2=NOC(c3cc(C(F)(F)F)cc(C(F)(F)F)c3)(C(F)(F)F)C2)c2ccccc12 (stereo not shown) [Compound 103] | – | at least 50% | ≥ 80% | ≥ 80% | – |
| CSCC(C)(C)NC(=O)c1ccc(C2=NOC(c3cc(Cl)cc(Cl)c3)(C(F)(F)F)C2)c2ccccc12 (stereo not shown) [Compound 27] | at least 80% | at least 50% | ≥ 80% | ≥ 80% | at least 50% |
| CCS(=O)(=O)CCNC(=O)c1ccc(C2=NOC(c3cc(C(F)(F)F)cc(C(F)(F)F)c3)(C(F)(F)F)C2)c2ccccc12 (stereo not shown) [Compound 99] | – | at least 50% | ≥ 80% | ≥ 80% | at least 50% |
| CCC(O)CNC(=O)c1ccc(C2=NOC(c3cccc(C(F)(F)F)c3)(C(F)(F)F)C2)c2ccccc12 (stereo not shown) [Compound 64] | – | at least 50% | – | – | – |
| CS(=O)(=O)CCNC(=O)c1ccc(C2=NOC(c3cccc(C(F)(F)F)c3)(C(F)(F)F)C2)c2ccccc12 (racemic) [Compound 39] | – | at least 50% | ≥ 80% | ≥ 80% | – |
| CSCCNC(=O)c1ccc(C2=NOC(c3cccc(OC(F)(F)F)c3)(C(F)(F)F)C2)c2ccccc12 (stereo not shown) [Compound 71] | – | at least 50% | ≥ 80% | ≥ 80% | – |
| CC(C)(C)CNC(=O)CNC(=O)c1ccc(C2=NOC(c3cc(Cl)cc(C(F)(F)F)c3)(C(F)(F)F)C2)c2ccccc12 (stereo not shown) [Compound 120] | – | – | ≥ 80% | ≥ 80% | – |
| CCSCCCNC(=O)c1ccc(C2=NOC(c3cccc(C(F)(F)F)c3)(C(F)(F)F)C2)c2ccccc12 (racemic) [Compound 48] | – | – | ≥ 80% | ≥ 80% | – |
| CC(C)CNC(=O)C(C)NC(=O)c1ccc(C2=NOC(c3cc(C(F)(F)F)cc(C(F)(F)F)c3)(C(F)(F)F)C2)c2ccccc12 (stereo not shown) [Compound 90] | – | at least 50% | ≥ 80% | ≥ 80% | – |
| CC(CO)NC(=O)c1ccc(C2=NOC(c3cccc(C(F)(F)F)c3)(C(F)(F)F)C2)c2ccccc12 (mixture of isomers) [Compound 41] | – | at least 50% | – | – | – |
| CC(NC(=O)c1ccc(C2=NOC(c3cc(C(F)(F)F)cc(C(F)(F)F)c3)(C(F)(F)F)C2)c2ccccc12)C(=O)NC(C)C(F)(F)F (stereo not shown) [Compound 121] | – | – | ≥ 80% | ≥ 80% | – |
